PubChem BioAssay AID743255 (National Center for Advancing Translational Sciences (NCATS), 2014)
About 910 (0.23%) of roughly 390,000 compounds were called active. The shares of active, inactive and inconclusive entries below differ from those in the screen. The call rests on the fitted dose curve; in most records, active means well fitted inhibition curve with a large enough effect; inconclusive means small, poorly fitted or top-dose-only effect; inactive means no such curve, though single readings can be large or run the other way. Potencies beside an inconclusive call are fits to weak or partial responses and may not hold up.

Protein sequences, listed by entry. Tags and fused reporters are not part of them. Lines headed by an entry give the natural chain unless they say otherwise; changes in a name come on top.
UniProt O94782: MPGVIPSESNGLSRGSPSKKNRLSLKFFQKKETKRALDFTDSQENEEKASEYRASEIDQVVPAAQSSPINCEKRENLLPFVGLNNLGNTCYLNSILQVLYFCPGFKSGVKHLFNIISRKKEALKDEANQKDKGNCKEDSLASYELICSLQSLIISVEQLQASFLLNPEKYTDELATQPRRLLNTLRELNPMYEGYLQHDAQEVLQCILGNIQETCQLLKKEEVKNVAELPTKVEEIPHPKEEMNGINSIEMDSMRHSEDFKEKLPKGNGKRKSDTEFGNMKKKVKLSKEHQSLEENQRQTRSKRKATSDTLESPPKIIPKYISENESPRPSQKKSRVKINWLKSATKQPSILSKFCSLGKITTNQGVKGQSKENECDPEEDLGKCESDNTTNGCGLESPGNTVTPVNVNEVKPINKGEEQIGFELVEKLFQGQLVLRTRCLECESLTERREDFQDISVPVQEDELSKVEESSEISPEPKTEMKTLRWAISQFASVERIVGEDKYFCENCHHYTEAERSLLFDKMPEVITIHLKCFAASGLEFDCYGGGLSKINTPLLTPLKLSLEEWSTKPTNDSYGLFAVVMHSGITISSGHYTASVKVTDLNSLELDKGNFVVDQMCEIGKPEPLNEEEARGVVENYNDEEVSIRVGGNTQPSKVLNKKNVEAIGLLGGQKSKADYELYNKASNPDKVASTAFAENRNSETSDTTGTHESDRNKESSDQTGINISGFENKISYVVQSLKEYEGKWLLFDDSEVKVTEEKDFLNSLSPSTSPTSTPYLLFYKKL

The molecules below were run against Ubiquitin carboxyl-terminal hydrolase 1 (Homo sapiens) (UniProt O94782) (assay: Inhibitors of USP1/UAF1: Primary Screen). Details: recombinant USP1/UAF1, Ub-Rhodamine cleavage fluorescence; series mostly up to 57.1 µM.
Procedure, shortened: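 USP1/UAF1 complex (1 nM) preincubated 15 min at room temperature with compound, then Ub-Rho substrate (150 nM final) added. Kinetic fluorescence at 480/540 nm over 6 reads at 60 s intervals; 50 mM HEPES pH 7.8, 0.5 mM EDTA, 0.1 mg/ml BSA, 1 mM TCEP, 0.01% Tween-20.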
Further: nearly all actives have a fitted effect of over 60% in size.
Potency means the concentration at half of the fitted maximal effect.

Row | Compound | Potency
1 | Cn1nc(-c2ccccc2F)c2cc(C(=O)N3CCN(c4ccccc4F)CC3)sc21 | inactive
2 | Cc1ccc(S(=O)(=O)N2CCCc3cc(NC(=O)c4cccc(Cl)c4)ccc32)cc1 | inactive
3 | Cn1cccc1-c1cc2n(n1)CCC(=O)N2CC(=O)Nc1ccc(F)cc1Cl | inactive
4 | CCc1cc[n+](-c2nc([O-])sc2C=O)cc1 | inactive
5 | CCc1nnc(N/N=C/c2ccc(-c3ccc([N+](=O)[O-])cc3)o2)n1N | inconclusive: 31.6 µM [inhibitor, partial curve]
6 | N#C/C(=C/c1ccc(N2CCOCC2)o1)C(=O)NC1CCCCC1 | inconclusive: 31.6 µM [inhibitor, single point]
7 | O=C(O)c1cccc(NC(=S)N/N=C/c2ccccc2OCc2ccc(Br)cc2)c1 | inconclusive: 39.8 µM [inhibitor, partial curve]
8 | CCOC(=O)Cn1c(=O)oc2cc(S(=O)(=O)Nc3cc(Cl)ccc3OC)ccc21 | inconclusive: 4.47 µM [inhibitor, partial curve]
9 | Nc1c(-c2ccc(Cl)cc2)cnc2c(-c3ccccc3)cnn12 | inconclusive: 1.26 µM [inhibitor, full curve, poor fit]
10 | O=S(=O)(c1ccc(Cl)cc1)c1nc(-c2ccccc2F)oc1NCc1ccccc1 | inconclusive: 6.31 µM [inhibitor, single point]
11 | CCc1cc[n+](-c2nc3ccccc3nc2[N-]S(=O)(=O)c2ccc(Br)s2)cc1 | inconclusive: 35.5 µM [inhibitor, single point]
12 | COc1cc(/C=C2/C(=O)NN(c3ccc(Cl)cc3)C2=O)cc(OC)c1O | inconclusive: 20 µM [inhibitor, partial curve]
13 | NS(=O)(=O)c1ccc(NC(=O)CCCCCN2C(=O)c3ccccc3C2=O)cc1 | inconclusive: 10 µM [inhibitor, partial curve, poor fit]
14 | CCC(C)(C(=O)NC1CCCCC1)N(Cc1cccs1)C(=O)c1ccccn1 (stereo not drawn) | inconclusive: 35.5 µM [inhibitor, partial curve, poor fit]
15 | O=C(N/N=C/c1ccc(-c2cccc(C(F)(F)F)c2)o1)c1cccc(F)c1 | inconclusive: 44.7 µM [inhibitor, partial curve, poor fit]
16 | COc1cccc(CNC(=O)c2cccc(NC(=O)C3=C(C)OCCS3)c2)c1 | inconclusive: 50.1 µM [inhibitor, partial curve, poor fit]
17 | COc1ccc(/C=C/C(=O)N2CCN(c3ccccn3)CC2)c2ccccc12 | inconclusive: 44.7 µM [inhibitor, partial curve]
18 | Cc1ccc(N/C=C/C(=O)c2cccs2)cc1C | inconclusive: 100 µM [inhibitor, partial curve, poor fit]
19 | Cc1ccc(C)c(NC(=O)CN(C)C(=O)c2cc3ccccc3oc2=O)c1 | inconclusive: 44.7 µM [inhibitor, partial curve]
20 | CC(=O)c1cc(F)c(N2CCN(C(=O)c3ccco3)CC2)cc1C | inactive
21 | CN(CC(=O)Nc1cccc(Cl)c1)C1=NS(=O)(=O)c2ccccc21 | inconclusive: 8.91 µM [inhibitor, partial curve]

Row | Compound | Potency
22 | O=C(Nc1ccc2oc(-c3cc(Br)ccc3Cl)nc2c1)c1cc2ccccc2o1 | inconclusive: 10 µM [inhibitor, partial curve, poor fit]
23 | COc1cccc(NC(=O)CN(C)C(=O)c2cccnc2Nc2cccc(C(F)(F)F)c2)c1 | inconclusive: 31.6 µM [inhibitor, partial curve]
24 | c1ccc(OCCN2CCN(C(c3ccccc3)c3ccccc3)CC2)cc1 | inactive
25 | CC(C)CN(C(=O)CN1CCCCCC1)c1c(N)n(CC(C)C)c(=O)[nH]c1=O | inconclusive: 50.1 µM [inhibitor, partial curve, poor fit]
26 | NS(=O)(=O)c1cc(C(=O)NC2CCSc3ccccc32)ccc1Cl (stereo not drawn) | inconclusive: 39.8 µM [inhibitor, partial curve, poor fit]
27 | COc1ccc(NS(=O)(=O)c2ccc(NS(=O)(=O)c3cccs3)cc2)cc1 | inconclusive: 0.891 µM [inhibitor, full curve, poor fit]
28 | CCCn1c(CN2CCN(c3ccc(OC)cc3)CC2)nc2c1c(=O)[nH]c(=O)n2C | inactive
29 | COc1cc(-c2cc3n(C)c(C)c(CCC(=O)O)c(=O)n3n2)cc(OC)c1OC | inconclusive: 44.7 µM [inhibitor, partial curve]
30 | Cc1c(Cl)c([N+](=O)[O-])nn1Cc1ccc(C(=O)N/N=C\c2cc(Cl)ccc2O)o1 | inconclusive: 7.08 µM [inhibitor, full curve, poor fit]
31 | COc1cc(OC)c(NC(=O)N2CCSc3ccccc32)cc1Cl | inconclusive: 31.6 µM [inhibitor, partial curve]
32 | CN(C)c1ccc2cc(S(=O)(=O)O)cc(O)c2c1 | inconclusive: 25.1 µM [inhibitor, partial curve]
33 | COCCNC(=O)C(C#N)c1nc2ccccc2nc1N1CCCCCC1 (stereo not drawn) | inactive
34 | COc1ccccc1OCCSc1nc(-c2ccc(C(C)(C)C)cc2)nc2cc(=O)[nH]n12 | inconclusive: 1.41 µM [inhibitor, full curve]
35 | Cc1ccc(NC(=O)CCCn2c(=O)c3cccn3c3ccccc32)c(Cl)c1 | inconclusive: 25.1 µM [inhibitor, partial curve]
36 | COCCCN(C(=O)c1ccco1)c1nc(-c2ccc(OC)cc2)cs1 | inconclusive: 0.398 µM [inhibitor, full curve, poor fit]
37 | CCCCOc1ccc(/C=C/C(=O)OCC(=O)NC(=O)NCC(C)C)cc1OCC | inactive
38 | Cn1c(CCNC(=O)c2ccco2)nc2cc(NC(=O)c3ccccc3)ccc21 | inactive
39 | CC(=O)Oc1ccc2c(c1)O/C(=C\c1ccncc1)C2=O | active: 28.2 µM
40 | O=C(NC(=S)Nc1ccc([N+](=O)[O-])cc1)c1ccco1 | inconclusive: 0.282 µM [inhibitor, full curve, poor fit]
41 | O=C(CSc1ccc(/C=N/NC(=O)c2cccc(F)c2)o1)Nc1ccccc1 | inconclusive: 28.2 µM [inhibitor, partial curve]
42 | Cc1ccccc1CS(=O)(=O)c1ccc(C(=O)N2CCC(C)CC2)cc1[N+](=O)[O-] | inconclusive: 7.94 µM [inhibitor, partial curve, poor fit]

Row | Compound | Potency
43 | COC(=O)c1sc2cccc(F)c2c1S(=O)(=O)N1CCN(c2cccc(C)c2)C(C)C1 (stereo not drawn) | inactive
44 | Cc1ccc(NC(=O)CSc2nc3ccccc3c3nc(CCc4c(C)n[nH]c4C)nn23)cc1F | inconclusive: 31.6 µM [inhibitor, partial curve]
45 | CCO[C@@H]1OC(C(=O)Nc2ccccc2)=C[C@H](C)[C@H]1CCCO | inconclusive: 7.94 µM [inhibitor, partial curve, poor fit]
46 | O=C1CCC/C(=N/NC(=O)c2ccc(CN3c4cccc5cccc(c45)S3(=O)=O)cc2)C1 | inactive
47 | CN1C(=O)/C(=C\C=C2/CCCN2C)N(C)C1=S | inconclusive: 39.8 µM [inhibitor, partial curve]
48 | Cc1[nH]c(C)c(S(=O)(=O)N2CCN(c3cccc(C(F)(F)F)c3)CC2)c1C(=O)N1CCCC1 | inconclusive: 8.91 µM [inhibitor, full curve, poor fit]
49 | CCOC(=O)N1CCN(C(=O)/C(=C/c2cccs2)NC(=O)c2cccs2)CC1 | inconclusive: 39.8 µM [inhibitor, partial curve]
50 | O=C(NCc1ccccn1)C1CCCN(S(=O)(=O)c2cc(Cl)ccc2Cl)C1 (stereo not drawn) | inactive
51 | O=[N+]([O-])c1ccccc1CN1CCN(Cc2ccccn2)CC1 | inactive
52 | COc1ccc(C2/C=C\CN(Cc3ccc(N(C)C)cc3)CC(=O)N2Cc2ccc(F)cc2)cc1 (stereo not drawn) | inconclusive: 44.7 µM [inhibitor, partial curve, poor fit]
53 | CCN1C(=O)c2ccccc2Sc2ccc(NC(=O)Nc3cccc([N+](=O)[O-])c3C)cc21 | inconclusive: 2 µM [inhibitor, partial curve, poor fit]
54 | O=C(NCCCN1CCN(c2cccc(Cl)c2)CC1)c1cnn(-c2ccc(F)cc2)c1-n1cccc1 | inconclusive: 50.1 µM [inhibitor, partial curve]
55 | N#CC(C(=O)NCc1ccccc1)c1nc2ccccc2nc1N1CCCC1 (stereo not drawn) | inconclusive: 2.51 µM [inhibitor, full curve, poor fit]
56 | Cc1nc(N(C)C)c2sc(=S)n(C)c2n1 | inactive
57 | CCOC(=O)c1c(C)[nH]c(C)c1S(=O)(=O)N1CCC(C(=O)NCc2cccc(OC)c2)CC1 | inactive
58 | CCC1CCCCN1S(=O)(=O)c1cc2c3c(c1)CC(=O)N3CCC2 (stereo not drawn) | inconclusive: 15.8 µM [inhibitor, partial curve]
59 | CC1(C)O[C@H]2CC(=O)OC[C@@]23C1CC(=O)[C@]1(C)C3CC[C@@]2(C)[C@H](c3ccoc3)OC(=O)[C@H]3O[C@]321 (stereo partly drawn) | inconclusive: 15.8 µM [inhibitor, partial curve]
60 | Cc1ccccc1OCC(=O)N1CCC(c2nc3ccccc3s2)CC1 | inconclusive: 0.251 µM [inhibitor, full curve, poor fit]
61 | Cc1nn(-c2ccccc2)c2c1C(c1ccncc1)C(C#N)=C(N)O2 (stereo not drawn) | inactive
62 | COc1ccc(N=C(N(C)C)P(=O)(N(C)C)N(C)C)cc1 | inconclusive: 0.891 µM [inhibitor, full curve, poor fit]
63 | CCc1ccccc1NC(=O)Cn1c(=O)ccc2cc(S(=O)(=O)N3CCCC3)ccc21 | inconclusive: 28.2 µM [inhibitor, partial curve]

Some of these compounds in order of formula weight, low to high:
Row | Compound | Potency
60 | Cc1ccccc1OCC(=O)N1CCC(c2nc3ccccc3s2)CC1 | inconclusive: 0.251 µM [inhibitor, full curve, poor fit]
12 | COc1cc(/C=C2/C(=O)NN(c3ccc(Cl)cc3)C2=O)cc(OC)c1O | inconclusive: 20 µM [inhibitor, partial curve]
35 | Cc1ccc(NC(=O)CCCn2c(=O)c3cccn3c3ccccc32)c(Cl)c1 | inconclusive: 25.1 µM [inhibitor, partial curve]
